Test results published in publication PMC10781698.
Results are given in words; binding and its absence hold for the method and conditions named. Binding seen in cells or lysates may run through a third protein. Some entries that bind do so weakly or less than the wild type. Where a sequence is shown, tags or fusion partners need not be part of it.

Legend:
RASAL3-FLAG = target: T1, RASAL3-FLAG (UniProt Q8C2K5); experiment: co-IP; HEK293T transiently co-transfected pairwise; RIPA lysis buffer (20 mM Tris-HCl pH 7.5, 200 mM NaCl, 1% NP-40); IP with anti-FLAG and blot with anti-HA, or IP with anti-CCDC88B anti-serum and blot with anti-FLAG
T1 sequence: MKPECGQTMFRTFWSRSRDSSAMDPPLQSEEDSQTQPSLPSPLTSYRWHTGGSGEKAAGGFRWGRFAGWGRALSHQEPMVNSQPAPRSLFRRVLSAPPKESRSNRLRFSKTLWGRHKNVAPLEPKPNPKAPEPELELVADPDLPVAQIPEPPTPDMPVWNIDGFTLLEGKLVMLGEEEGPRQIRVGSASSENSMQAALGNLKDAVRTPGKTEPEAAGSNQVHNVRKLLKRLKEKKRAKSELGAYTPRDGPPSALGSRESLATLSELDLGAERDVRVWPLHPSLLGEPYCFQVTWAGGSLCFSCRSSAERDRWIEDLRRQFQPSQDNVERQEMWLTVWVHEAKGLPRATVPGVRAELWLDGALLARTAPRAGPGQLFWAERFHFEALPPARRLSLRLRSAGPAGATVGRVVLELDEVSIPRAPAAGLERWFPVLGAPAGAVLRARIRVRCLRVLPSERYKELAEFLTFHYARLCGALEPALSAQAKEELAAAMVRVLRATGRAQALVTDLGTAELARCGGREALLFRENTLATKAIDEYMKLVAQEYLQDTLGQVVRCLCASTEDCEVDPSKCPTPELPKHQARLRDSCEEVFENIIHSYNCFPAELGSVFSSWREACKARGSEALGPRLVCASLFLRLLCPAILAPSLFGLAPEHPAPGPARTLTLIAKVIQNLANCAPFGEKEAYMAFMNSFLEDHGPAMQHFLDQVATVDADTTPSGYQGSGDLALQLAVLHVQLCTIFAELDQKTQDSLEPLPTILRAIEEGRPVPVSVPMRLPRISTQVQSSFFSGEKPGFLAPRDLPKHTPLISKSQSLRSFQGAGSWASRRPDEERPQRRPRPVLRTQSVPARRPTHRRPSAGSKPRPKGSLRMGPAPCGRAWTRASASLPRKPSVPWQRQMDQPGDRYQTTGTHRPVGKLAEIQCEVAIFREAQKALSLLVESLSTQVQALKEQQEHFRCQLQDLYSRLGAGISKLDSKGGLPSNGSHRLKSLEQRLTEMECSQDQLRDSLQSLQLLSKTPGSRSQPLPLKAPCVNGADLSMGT

ARHGEF2-FLAG = target: T2, ARHGEF2-FLAG (UniProt Q60875); experiment: as above
T2 sequence: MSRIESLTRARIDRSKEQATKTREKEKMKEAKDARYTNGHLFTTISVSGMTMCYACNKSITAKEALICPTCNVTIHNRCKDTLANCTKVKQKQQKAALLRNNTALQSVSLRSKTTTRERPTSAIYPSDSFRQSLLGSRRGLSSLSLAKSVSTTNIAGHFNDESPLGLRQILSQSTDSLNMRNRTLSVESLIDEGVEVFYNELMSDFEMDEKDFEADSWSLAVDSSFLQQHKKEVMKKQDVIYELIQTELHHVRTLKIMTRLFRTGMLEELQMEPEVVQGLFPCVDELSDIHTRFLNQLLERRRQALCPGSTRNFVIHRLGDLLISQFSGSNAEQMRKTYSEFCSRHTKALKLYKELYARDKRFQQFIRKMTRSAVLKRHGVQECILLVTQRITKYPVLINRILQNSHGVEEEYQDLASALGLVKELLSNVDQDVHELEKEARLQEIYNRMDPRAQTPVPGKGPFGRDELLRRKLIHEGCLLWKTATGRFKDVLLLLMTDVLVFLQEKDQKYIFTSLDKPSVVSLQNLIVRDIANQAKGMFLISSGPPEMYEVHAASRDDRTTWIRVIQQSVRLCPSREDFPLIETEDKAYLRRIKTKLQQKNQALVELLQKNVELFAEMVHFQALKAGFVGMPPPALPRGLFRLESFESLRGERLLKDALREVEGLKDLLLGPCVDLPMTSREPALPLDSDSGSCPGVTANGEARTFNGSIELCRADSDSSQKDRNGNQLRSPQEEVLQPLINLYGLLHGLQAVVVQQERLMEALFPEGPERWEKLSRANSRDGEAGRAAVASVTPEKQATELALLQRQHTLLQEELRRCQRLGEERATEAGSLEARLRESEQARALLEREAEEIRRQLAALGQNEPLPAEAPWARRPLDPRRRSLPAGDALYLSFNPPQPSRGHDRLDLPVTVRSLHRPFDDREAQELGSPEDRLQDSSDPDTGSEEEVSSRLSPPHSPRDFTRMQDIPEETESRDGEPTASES

binding (RASAL3-FLAG): binds
binding (ARHGEF2-FLAG): binds
B1: HA-CCDC88B (protein, UniProt Q4QRL3 1-1481)
chain: MEGAKGPRLRGFLSGSLATWALGLAGLVGEAEESAGGTEEEEEEEEEEGALCTEKRFLRLIDGALLLRVLGIIAPSSRGGLRMVRGRDGPAACRMWNLCHLWGRLRDFYQEELQLLILSPPPDLQTMGCDPFSEEAVDELESILRLLLGASVQCEHRELFIRHIRGLSLDVQSELAGAIQEVTQPGAGVVLALAGPESGELVAEELEMQLRSLTGMMSRLARERDLGAQRLAELLLEREPAHLLLPEAPANASAEGVSHHLALQLTNAKAQLRRLRQEVEEKAEQLLDSQAEVQGLEAEIRRLRQETQALSAQAKRAELYREEAEALRERAGRLPRLQEELRRCREKLQAAEVFKGQLEEERVLSEALEASKVLLEEQLEVARERSARLHETQRENLLLRTRLGEAHADLDSLRHQLEQLVEENVELELELQRSLEPPPGSPGEASLPGAAPSLQDEVREAEAGRLRAVERENRELRGQLQMLQAQLGSQHPLLEEQRENSRQPPVPNRDPATPSALHHSPQSPACQIGGEGSESLDLPSPASYSDITRSPKCSQAPDSHPELESPLQMVSQDPQTSDQALQESDPTVETHQCLEKSGHRVPLQSPIVWDPPQGPEVRIEVQELLGETGSREAPQGELVHKAQVLKQESPKCRPRSAELTLREPLKDQKALDRELELSKQQKETGRHEQRPKGLESKLGPQKPQQTSEGVPDAWSREEPTPGETLVSAIPEEQALRDEVAQLRREVAGLEVKLQAQAQRLEARSAEALCLSEELAQARRTEAEAHQEAEAQAREQARLREAVDTASLELEAASREREALAEALAAAGRERRQWERDGPRLRAQVEAAEQQVQALESQVRCHLEEAEREHAEKQALREELEKAVLRGQELGDRLEHLQEELEQAALERQKFLQEQENQHQRYRHLEQRLEAELQAASTSKEEALMELKARALQLEEELIQLRQYPVDLATGARAGPRTVETQNGRLIEVERNNATLVAEKAALQGQLQHLEGQLGSLQGRAQELLLQSQRAQEHSSRLQAEKSMMEMQGQELHRKLGVLEEEVRAARRAQEETRGQQQALLRDHEALVQLQRRQETELEGLLVRHRDLKANMRALELAHRELQGRHEQLQAQRANVEAQEVALLAERERLMQDGHRQRGLEEELRRLQNEHERAQMLLAEVSRERGELQGERGELRSRLARLELERAQLEIQSQQLRESNQQLDLSACRLTTQCELLTQLRSAQEEENRQLLAEVQALSRENRELLERSLESRDHLHREQREYLDQLNALRREKQKLVEKIMDQYRVLEPGPLPRTKKGSWLADKVKRLIRPRREGALHGGPRLGADGAGSTESLGGPLETELPEGREADGTGSSSPAPMRRVQSSLCLGDETLAGGQRRRLSSRFPGGRSSASFSPGDTPRQRFRQRRPGPLGAPSTHSKGSGVEWDGSIKTLSEHEADDTREAFQEQKPEKQFLTPSLSQ
